At least one result comes from cells or an extract, where the contact may be indirect. A negative result means that nothing was seen under these conditions. Tags and fusion partners may be left off the protein sequences shown.
System: T1, PABF C-terminal fragment (lambda900 cDNA clone) (Nicotiana tabacum)
T1 sequence: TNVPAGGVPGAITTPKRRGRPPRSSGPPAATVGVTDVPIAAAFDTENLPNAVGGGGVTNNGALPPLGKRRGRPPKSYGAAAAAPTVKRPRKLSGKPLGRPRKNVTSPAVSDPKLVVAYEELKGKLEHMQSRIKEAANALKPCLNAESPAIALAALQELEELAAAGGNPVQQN
Assay: binding assay
Conditions: protein in a lysate after overexpression

Sequence: CATAAGGATTAGGAATTTAATTTCGTAG (double strand) [PF]
- binding result (plaque filter binding): no binding

Sequence: TGCAGGTGTTGCACGTGATACTCACCTACCCTGCA (double strand) [G-box]
- binding result (plaque filter binding): no binding

Sequence: TATATATATATATATATATATATATATATACCACGT (double strand)
- binding result (plaque filter binding): no binding

Sequence: CGACTCACCTACCTGACATGCTACGCAGCG (double strand) [H-box]
- binding result (plaque filter binding): no binding

Sequence: AATTAATTAATTAATTAATTAATTAATTAATTAATTAATTAATTAATTAATT (double strand) [PAs (AATT)13]
- binding result (filter binding, indistinguishable from PA): binds

Sequence: CTTGTCATTATTTCTCCACCACCCCCTTCACTTCCC (double strand)
- binding result (plaque filter binding): no binding

From patent US20020146824
